Results are given in words; binding and its absence hold for the method and conditions named. Binding seen in cells or lysates may run through a third protein. Some results given as binding are weak or reduced against the parent protein; the word gives no strength.
T1: Wnt7b (mouse (endogenous in fibrotic lung tissue)) (UniProt P28047)
T1 sequence: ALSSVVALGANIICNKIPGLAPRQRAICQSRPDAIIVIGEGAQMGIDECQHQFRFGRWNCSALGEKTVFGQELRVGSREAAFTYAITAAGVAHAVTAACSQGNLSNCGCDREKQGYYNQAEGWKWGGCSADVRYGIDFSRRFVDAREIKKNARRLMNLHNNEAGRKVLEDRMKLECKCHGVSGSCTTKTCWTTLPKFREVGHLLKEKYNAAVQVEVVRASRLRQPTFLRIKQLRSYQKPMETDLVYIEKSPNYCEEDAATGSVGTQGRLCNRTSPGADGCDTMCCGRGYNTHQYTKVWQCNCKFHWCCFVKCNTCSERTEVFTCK


Molecular target: T1, Wnt7b (mouse (endogenous in fibrotic lung tissue))
Experiment: co-IP; Pierce Co-IP kit; Wnt7b or Wnt10a antibody immobilised on AminoLink Plus Coupling Resin, incubated with the lysate of mouse fibrotic lung tissues overnight; western blot

binding | Binder
binds | Fzd10 (receptor, UniProt Q8BKG4 22-582) ISSMDLERPGDGKCQPVEIPMCKDIGYNTTRMPNLMGHENQREAAIQLHEFAPLVEYGCHSHLRFFLCSLYAPMCTEQVSTPIPACRVMCEQARLKCSPIMEQFKFRWPDSLDCSKLPNKNDPNYLCMEAPNNGSDEPSRGSGMFPPLFRPQRPHSAQEHPLKDGGPGRAGCDNPGKFHHVEKSESCAPLCTPGVDVYWSRDDKRFAVVWLAIWSVLCFFSSAFTVLTFLIDPSRFRYPERPIIFLSMCYCVYSVGYIIRLFAGAESIACDRDSGQLYVIQEGLESTGCTLVFLVLYYFGMASSLWWVVLTLTWFLAAGKKWGHEAIEANSSYFHLAAWAIPAVKTILILVMRRVAGDELTGVCYVGSMDVNALTGFVLVPLACYLVIGTSFILSGFVALFHIRRVMKTGGENTDKLEKLMVRIGVFSLLYTVPATCVIACYFYERLNMDYWKMLATQHKCKMNNQTKTPDCLMTTSIPAVEVFMVKVSMLLVVGITSGVWVWTSKTLQSWQHVCSRGLKRKSRRKPASVVTSAGIYKKAQHPQKPHLGKYELPAQPSACV
no binding | Fzd9 (receptor, UniProt Q9R216 24-592) LEIGRFDPERGRGPAPCQAMEIPMCRGIGYNLTRMPNLLGHTSQGEAAAQLAEFSPLVQYGCHSHLRFFLCSLYAPMCTDQVSTPIPACRPMCEQARLRCAPIMEQFNFGWPDSLDCARLPTRNDPHALCMEAPENATAGPTEPHKGLGMLPVAPRPARPPGDSAPGPGSGGTCDNPEKFQYVEKSRSCAPRCGPGVEVFWSRRDKDFALVWMAVWSALCFFSTAFTVFTFLLEPHRFQYPERPIIFLSMCYNVYSLAFLIRAVAGAQSVACDQEAGALYVIQEGLENTGCTLVFLLLYYFGMASSLWWVVLTLTWFLAAGKKWGHEAIEAHGSYFHMAAWGLPALKTIVVLTLRKVAGDELTGLCYVASMDPAALTGFVLVPLSCYLVLGTSFLLTGFVALFHIRKIMKTGGTNTEKLEKLMVKIGVFSILYTVPATCVIVCYVYERLNMDFWRLRATEQPCTAATVPGGRRDCSLPGGSVPTVAVFMLKIFMSLVVGITSGVWVWSSKTFQTWQSLCYRKMAAGRARAKACRTPGGYGRGTHCHYKAPTVVLHMTKTDPSLENPTHL

Source: paper PMC5974360
